The list shows a part of the results. The data scatter; read single values as rough.
Target: T1, CCT7 C29 (UniProt Q99832)
T1 sequence (whole entry): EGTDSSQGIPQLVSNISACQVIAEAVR
Experiment: log2 mean competition ratio of IA-DTB cysteine labelling (DMSO/compound) (log2 ratio); higher = stronger cysteine engagement by compound
Details: 50 µM; treatment time: 4 h; cell line lysate: HEK293T
Protocol: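 IA-DTB competitive cysteine chemoproteomics in HEK293T RIPA lysate. Lysates were treated with compound 29 or 30 at 50 or 200 µM for 4 h, then IA-DTB (500 µM, 1 h), trypsin-digested, NeutrAvidin-enriched and analysed by diaPASEF. Competition ratio = intensity DMSO / intensity compound (n=4 treated, n=64 DMSO); binding: mean log2 CR ≥ 1 and p ≤ 0.05 plus QC filters. Target is the cysteine site.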

By UniProt entry, the sequences of proteins in these tests, tags left out. Where a name states a change or a piece, a line headed by the entry shows the natural chain unless it says otherwise.
UniProt Q99832: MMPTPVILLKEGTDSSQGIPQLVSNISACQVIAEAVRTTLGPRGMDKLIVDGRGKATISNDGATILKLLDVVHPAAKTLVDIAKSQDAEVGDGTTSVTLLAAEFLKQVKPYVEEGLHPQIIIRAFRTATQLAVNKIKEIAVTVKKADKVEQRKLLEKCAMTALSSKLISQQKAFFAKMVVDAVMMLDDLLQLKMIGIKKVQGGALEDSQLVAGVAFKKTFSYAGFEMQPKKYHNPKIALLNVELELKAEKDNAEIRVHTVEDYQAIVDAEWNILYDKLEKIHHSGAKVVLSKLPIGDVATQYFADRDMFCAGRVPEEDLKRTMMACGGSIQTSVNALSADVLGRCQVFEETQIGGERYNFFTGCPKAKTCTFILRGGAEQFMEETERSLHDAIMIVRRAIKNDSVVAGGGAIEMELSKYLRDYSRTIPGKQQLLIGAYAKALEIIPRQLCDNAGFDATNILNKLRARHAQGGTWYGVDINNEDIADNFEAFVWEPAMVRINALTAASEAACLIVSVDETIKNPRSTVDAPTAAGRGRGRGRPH

| Structure (SMILES) | log2 mean competition ratio |
| --- | --- |
| O=C(CCl)N[C@@H]1CCCc2ccccc21 | 0.147 |
| O=C(CCl)N[C@H]1CCCc2ccccc21 | 0.137 |

Same assay, conditions: 200 µM; treatment time: 4 h; cell line lysate: HEK293T

| Structure (SMILES) | log2 mean competition ratio |
| --- | --- |
| O=C(CCl)N[C@@H]1CCCc2ccccc21 | -0.131 |
| O=C(CCl)N[C@H]1CCCc2ccccc21 | -0.189 |

Reference: the supplement of paper PMC11732987, “Enantioselective OTUD7B fragment discovery through chemoproteomics screening and high-throughput optimisation” (Communications Chemistry, 2025)
